This passage reports activity change, negative = inhibition results from PubChem BioAssay AID651803 (National Center for Advancing Translational Sciences (NCATS), 2012).

Sequences of proteins named here, by UniProt entry; tags and fusion partners are left off. A change or cut given only in a name is not applied to a line headed by its entry.
UniProt P11308: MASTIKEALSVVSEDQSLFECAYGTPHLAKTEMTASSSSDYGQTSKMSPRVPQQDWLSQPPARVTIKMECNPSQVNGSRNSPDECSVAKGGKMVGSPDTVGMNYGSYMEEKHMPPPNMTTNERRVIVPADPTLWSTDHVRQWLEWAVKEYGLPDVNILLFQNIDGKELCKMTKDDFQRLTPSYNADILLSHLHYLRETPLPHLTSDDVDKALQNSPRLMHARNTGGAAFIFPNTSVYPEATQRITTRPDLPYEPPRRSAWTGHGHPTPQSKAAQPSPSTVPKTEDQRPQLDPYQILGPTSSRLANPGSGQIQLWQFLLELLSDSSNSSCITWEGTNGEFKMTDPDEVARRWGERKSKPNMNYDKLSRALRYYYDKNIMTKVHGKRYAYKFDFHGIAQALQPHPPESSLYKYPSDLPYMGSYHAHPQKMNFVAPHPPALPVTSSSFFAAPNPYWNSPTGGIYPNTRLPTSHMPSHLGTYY

Fewer than 10 of roughly 1,200 compounds were called active. Calls follow the shape of the dose curve; as a rule, active = well fitted curve in the direction sought with a large enough effect; inconclusive = small, poorly fitted or top-dose-only effect, or another doubt; inactive = no such curve, though single readings can be large or run the other way. Some of the results follow.

The target in the assay is Transcriptional regulator ERG (Homo sapiens) (UniProt P11308). Nature of the assay: qHTS for Small Molecule Inhibitors of the ERG Ets/DNA interaction: TR assay against cherry picks. Also: % of control where 0% means no effect. The conditions noted are these: ERG Ets domain-DNA fluorescence polarization, Texas red probe; at 154 µM (top of the series). A digest of the protocol: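 Polarization read sequentially for fluorescein (ex 480/em 535 nm) and Texas red (ex 555/em 632 nm) probes, 5 nM and 100 nM solutions, displaced from His-ERG Ets domain (1 uM solution), pH 7.5 Tris/KCl/EDTA/DTT buffer.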
(qHTS replaces the single test concentration by a dilution series.)
Regarding `Cc1cc(C(=O)N/N=C/c2c(C)nn(-c3ccccc3)c2Cl)n[nH]1`, the activity change, negative = inhibition was inactive: -13.2%.
As to `C[N+]1(C)C2CC(OC(=O)C(CO)c3ccccc3)CC1C1OC12` (stereo not given), the activity change, negative = inhibition is inactive: -7.03%.
Take `O=C(O)c1cc2c(s1)-c1ccccc1CC2`: the activity change, negative = inhibition was inactive: -7.43%.
As to `CCNC(=S)N(CCO)Cc1cc2cc3c(cc2[nH]c1=O)OCO3`, the activity change, negative = inhibition is inactive: 0.136%.
Turning to `Cc1ccc(C)c(NC(=S)/C(=C(\[O-])c2ccc(OC(F)F)cc2)[n+]2ccccc2)c1`, the activity change, negative = inhibition was inactive: -6.17%.
For the compound `O=C(CN1C(=O)CS/C1=C\c1nc(-c2ccc(Cl)cc2)cs1)Nc1cccnc1Cl`, the activity change, negative = inhibition is inactive: 4.61%.
As for `O=C1CCCC(O)=C1N=Nc1ccc(S(=O)(=O)N2CCOCC2)cc1`, the activity change, negative = inhibition was inactive: -11.4%.
Next, `CCOc1cc(/C=C2\CCCc3c2nc2ccccc2c3C(=O)O)ccc1OC`: inactive: 47%; `CCOC(=O)c1sc(NC(=O)c2c(-c3ccccc3)c(-c3ccccc3)nn(C)c2=O)nc1C`: inactive: -8.8%.
Next, `Cc1ccc2c(COC(=O)c3ccccc3Br)cc(=O)oc2c1`: inactive: -0.0577%.
Take `Cc1cc(C)cc(NC(=O)CCOc2ccccc2)c1`: the activity change, negative = inhibition is inactive: 5.49%.
As to `COc1ccc(NC(=O)CSc2ccc(-c3ccco3)nn2)cc1OC`, the activity change, negative = inhibition was inactive: 0.142%.
For the compound `CN(C(=O)COC(=O)c1ccc(F)c(S(=O)(=O)N2CCOCC2)c1)C1CCS(=O)(=O)C1` (stereo not given), the activity change, negative = inhibition was inactive: -7.37%.
Take `CNc1nc2ccccc2n(C)c1=O`: the activity change, negative = inhibition is inactive: 2.19%.
Next, `COc1ccc(NC(=O)C2CCN(C(=O)C3CC(=O)N(c4ccc(C)cc4)C3)CC2)cc1` (stereo not given): inactive: 4.62%; `CCOC(=O)C(CC)Sc1ccc2nnc(-c3cccnc3)n2n1` (stereo not given): inactive: -20.8%; `CNCC(O)CN1CCN(c2ccccc2OC)CC1` (stereo not given): inactive: 5.62%.
On to `COc1ccc2cc(CO)c(Cl)nc2c1`, for which the activity change, negative = inhibition was inactive: 4.04%.
`Cc1noc(C)c1S(=O)(=O)N(CC(=O)NCc1ccc(F)cc1)c1ccc(C(C)C)cc1`: the activity change, negative = inhibition is inactive: -12.4%.
Regarding `N#C/C(=C\c1ccc(-c2ccccc2[N+](=O)[O-])o1)C(N)=O`, the activity change, negative = inhibition was inactive: -9.59%.
As to `CC(C)CN1C2CCCC1CC(NC(=S)NCc1ccco1)C2` (stereo not given), the activity change, negative = inhibition was inactive: -8.14%.
On to `CCCOc1ccc(C2c3c(-c4ccccc4O)n[nH]c3C(=O)N2CCc2ccccc2)cc1OCC` (stereo not given), for which the activity change, negative = inhibition is inactive: -6.68%.
Next, `COc1ccc(CCn2c(C)cc(C(=O)COC(=O)c3cnc(C)cn3)c2C)cc1`: inactive: -8.89%; `COc1ccc(CN2CCC(C(=O)N3CCCC(C)C3)CC2)cc1OC` (stereo not given): inactive: 8.66%; `Cc1ccc(C)c(NC(=O)COC(=O)c2ccc[n+]([O-])c2)c1`: inactive: 0.543%.
On to `COC(=O)c1sccc1NC(=O)/C=C/C(=O)O`, for which the activity change, negative = inhibition was inactive: -5.73%.
As for `O=C(CSC1=NCCS1)NC(NC(=O)CSC1=NCCS1)c1ccccc1`, the activity change, negative = inhibition was inactive: -15.3%.
Next, `c1ccc([C@H]2CN3C(=N2)Sc2ccccc23)cc1`: inactive: -13.6%; `Cc1ccc(NC(=O)C2CC(O)CN2C(=O)OCc2ccccc2)c(C)c1` (stereo not given): inactive: -3.93%.
Next, `CCOc1ccc(NC(=O)CSc2nc(-c3cccs3)cc(C(F)(F)F)c2C#N)cc1`: inactive: 12.5%; `CCOC(=O)CSc1nncc2ccc(OC)c(OC)c12`: inactive: 3.08%; `Cc1ccc(NCC(=O)N/N=C/c2c[nH]c3ccccc23)cc1`: inactive: -11.6%.
Consider `Cc1ccc(Cn2c(SCC(=O)N/N=C/c3ccccc3OCC(=O)O)nc3ccccc32)cc1`, for which the activity change, negative = inhibition is inactive: 14.1%.
Turning to `Cc1c(NC(=O)c2cc(-n3cnnc3)ccc2Cl)cccc1-c1nc2ccccc2s1`, the activity change, negative = inhibition was inactive: -4.71%.
Next, `COc1ccccc1CNC(=O)CCNC(=O)C1CCN(S(=O)(=O)c2ccccc2)CC1`: inactive: -4.44%.
Next, `Oc1ccc(NCc2cccs2)cc1`: inactive: -7.78%; `CC(C)n1c(SCc2ccccc2F)nc2c1c(=O)n(C)c(=O)n2C`: inactive: -13.1%; `Cc1nonc1C1CCCN1C(=O)c1cc(COc2ccc(F)cc2Cl)on1` (stereo not given): inactive: -0.16%.
`COC(=O)Cc1ccc(NC(=S)NC(C)(C)C)cc1`: the activity change, negative = inhibition was inactive: -0.76%.
For the compound `COc1cccc(C(=O)OCC(=O)Nc2ccc(N3CCOCC3)cc2)c1`, the activity change, negative = inhibition is inactive: -3.12%.
Next, `O=S(=O)(c1ccc(Cl)cc1)N1CCN(CCc2ccccc2)CC1`: inactive: 9.1%; `CC(Oc1ccc(F)cc1)C(=O)Nc1ccc(S(=O)(=O)NC2=NCCCCC2)cc1` (stereo not given): inactive: -11.1%.
As to `Cc1ccsc1/C=N/NC(=O)CO`, the activity change, negative = inhibition was inactive: 1.33%.
Regarding `COc1cc(C(=O)Nc2ccc(S(=O)(=O)Nc3cc(C)nc(C)n3)cc2)cc(OC)c1OC`, the activity change, negative = inhibition is inactive: 3.82%.
In the case of `Cc1cc2nc3c(=O)[nH]c(=S)[nH]c3nc2cc1NC(=O)C(F)(F)F`, the activity change, negative = inhibition was inactive: 24.9%.
With `Cc1cc(C[n+]2ncsc2N)c2ncccc2c1`, the activity change, negative = inhibition was inactive: 5.54%.
Next, `CCOc1ccc(N2C(=O)CC(N3CCN(C(=O)c4ccco4)CC3)C2=O)cc1` (stereo not given): inactive: -13%.
Take `COc1ccc(S(=O)(=O)NNC(=S)NCCc2ccccc2)c(OC)c1`: the activity change, negative = inhibition was inactive: -10.3%.
For the compound `Cc1cc(F)ccc1NC(=O)c1ccc(NS(=O)(=O)c2cc(C(C)(C)C)ccc2C)cc1`, the activity change, negative = inhibition was inactive: 4.71%.
`c1cnc(N2CCN(Cc3ccc4c(c3)OCO4)CC2)nc1`: the activity change, negative = inhibition was inactive: -5.83%.
Turning to `Nc1cccc(N2C(=O)c3cccc4c(N)ccc(c34)C2=O)c1`, the activity change, negative = inhibition is inactive: 4.36%.
For `COc1cc(CNCC2CCCO2)ccc1OCC(N)=O` (stereo not given), the activity change, negative = inhibition was inactive: 5.44%.
With `Cn1nc([N+](=O)[O-])c(C(C#N)c2ccccn2)c(Cl)c1=O` (stereo not given), the activity change, negative = inhibition is inactive: 3.56%.
For the compound `Cc1ccc(NC(=O)c2cc3cc(OC(F)(F)F)ccc3[nH]2)cc1`, the activity change, negative = inhibition was inactive: 4.35%.
For the compound `COC(=O)C(CSCc1ccccc1)NC(=O)CSc1nc(N)cc(=O)[nH]1` (stereo not given), the activity change, negative = inhibition is inactive: 0.742%.
With `CCN(Cc1ccccc1)C(=O)COC(=O)CNC(=O)c1ccc(C)s1`, the activity change, negative = inhibition was inactive: -9.94%.
`CC(C)(O)CN(CCCNC(=S)Nc1ccccc1)C(=S)Nc1ccccc1`: the activity change, negative = inhibition is inactive: -0.187%.
As for `NCCCC(=O)O`, the activity change, negative = inhibition is inactive: 11.5%.
Next, `CC(CCC(=O)O)C1CCC2C3CCC4C[C@H](O)CCC4(C)C3CC(=O)C12C` (stereo not given in full): inactive: 3.49%.
Regarding `O=C(NCCCc1ccccc1)C(=O)NCC1OCCN1S(=O)(=O)c1ccccc1` (stereo not given), the activity change, negative = inhibition is inactive: 11.2%.
